No constants are given. Whether binding was seen depends on the method and setting. Binding seen in cells or lysates may run through a third protein. These calls come from enrichment with a bait or labelling near it, and not all partners need be listed.
Biological target: FUST1-TurboID (Arabidopsis thaliana) (UniProt F4JFL5)
Experiment: proximity labelling; TurboID; FUST1-TurboID seedlings labelled at 37 °C for 1 h with 50 μM biotin; streptavidin magnetic beads and mass spectrometry; YFP-TurboID/Col-0 as background control; four biological replicates

binding: binds
B1: RBP47b (endogenous) (protein, UniProt Q0WW84 1-435)
chain: MQTTNGSDSTLATSGATPPNQQTPPPPQQWQQQQQQQQQWMAAMQYPPAAAMMMMQQQQMLMYPHQYVPYNQGPYQQHHPQLHQYGSYQQHQHQQHKAIDRGSGDDVKTLWVGDLLHWMDETYLHSCFSHTGEVSSVKVIRNKLTSQSEGYGFVEFLSRAAAEEVLQNYSGSVMPNSDQPFRINWASFSTGEKRAVENGPDLSVFVGDLSPDVTDVLLHETFSDRYPSVKSAKVVIDSNTGRSKGYGFVRFGDENERSRALTEMNGAYCSNRQMRVGIATPKRAIANQQQHSSQAVILAGGHGSNGSMGYGSQSDGESTNATIFVGGIDPDVIDEDLRQPFSQFGEVVSVKIPVGKGCGFVQFADRKSAEDAIESLNGTVIGKNTVRLSWGRSPNKQWRGDSGQQWNGGYSRGHGYNNGGGYANHHDSNNYHGEN

Reference: paper PMC12205081
